Data from patent US20210221847A1.
Results are given in words; binding and its absence hold for the method and conditions named. Some entries that bind do so weakly or less than the wild type.

The chains behind the UniProt entries cited, without tags or fusion partners. Residues count along the entry.
UniProt P06733, residues 2-434: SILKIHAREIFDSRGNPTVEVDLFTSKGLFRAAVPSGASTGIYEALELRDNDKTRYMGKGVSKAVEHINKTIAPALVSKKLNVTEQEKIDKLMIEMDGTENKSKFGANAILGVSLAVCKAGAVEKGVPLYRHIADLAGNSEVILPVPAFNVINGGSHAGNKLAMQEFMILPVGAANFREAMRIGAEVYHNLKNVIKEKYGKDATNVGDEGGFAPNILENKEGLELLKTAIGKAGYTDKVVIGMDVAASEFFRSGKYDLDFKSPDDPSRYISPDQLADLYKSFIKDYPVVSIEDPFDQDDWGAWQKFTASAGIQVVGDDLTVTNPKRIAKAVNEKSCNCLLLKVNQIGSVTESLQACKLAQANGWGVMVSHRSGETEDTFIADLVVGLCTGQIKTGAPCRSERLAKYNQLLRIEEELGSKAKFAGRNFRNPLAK
UniProt P04114, residues 28-4563: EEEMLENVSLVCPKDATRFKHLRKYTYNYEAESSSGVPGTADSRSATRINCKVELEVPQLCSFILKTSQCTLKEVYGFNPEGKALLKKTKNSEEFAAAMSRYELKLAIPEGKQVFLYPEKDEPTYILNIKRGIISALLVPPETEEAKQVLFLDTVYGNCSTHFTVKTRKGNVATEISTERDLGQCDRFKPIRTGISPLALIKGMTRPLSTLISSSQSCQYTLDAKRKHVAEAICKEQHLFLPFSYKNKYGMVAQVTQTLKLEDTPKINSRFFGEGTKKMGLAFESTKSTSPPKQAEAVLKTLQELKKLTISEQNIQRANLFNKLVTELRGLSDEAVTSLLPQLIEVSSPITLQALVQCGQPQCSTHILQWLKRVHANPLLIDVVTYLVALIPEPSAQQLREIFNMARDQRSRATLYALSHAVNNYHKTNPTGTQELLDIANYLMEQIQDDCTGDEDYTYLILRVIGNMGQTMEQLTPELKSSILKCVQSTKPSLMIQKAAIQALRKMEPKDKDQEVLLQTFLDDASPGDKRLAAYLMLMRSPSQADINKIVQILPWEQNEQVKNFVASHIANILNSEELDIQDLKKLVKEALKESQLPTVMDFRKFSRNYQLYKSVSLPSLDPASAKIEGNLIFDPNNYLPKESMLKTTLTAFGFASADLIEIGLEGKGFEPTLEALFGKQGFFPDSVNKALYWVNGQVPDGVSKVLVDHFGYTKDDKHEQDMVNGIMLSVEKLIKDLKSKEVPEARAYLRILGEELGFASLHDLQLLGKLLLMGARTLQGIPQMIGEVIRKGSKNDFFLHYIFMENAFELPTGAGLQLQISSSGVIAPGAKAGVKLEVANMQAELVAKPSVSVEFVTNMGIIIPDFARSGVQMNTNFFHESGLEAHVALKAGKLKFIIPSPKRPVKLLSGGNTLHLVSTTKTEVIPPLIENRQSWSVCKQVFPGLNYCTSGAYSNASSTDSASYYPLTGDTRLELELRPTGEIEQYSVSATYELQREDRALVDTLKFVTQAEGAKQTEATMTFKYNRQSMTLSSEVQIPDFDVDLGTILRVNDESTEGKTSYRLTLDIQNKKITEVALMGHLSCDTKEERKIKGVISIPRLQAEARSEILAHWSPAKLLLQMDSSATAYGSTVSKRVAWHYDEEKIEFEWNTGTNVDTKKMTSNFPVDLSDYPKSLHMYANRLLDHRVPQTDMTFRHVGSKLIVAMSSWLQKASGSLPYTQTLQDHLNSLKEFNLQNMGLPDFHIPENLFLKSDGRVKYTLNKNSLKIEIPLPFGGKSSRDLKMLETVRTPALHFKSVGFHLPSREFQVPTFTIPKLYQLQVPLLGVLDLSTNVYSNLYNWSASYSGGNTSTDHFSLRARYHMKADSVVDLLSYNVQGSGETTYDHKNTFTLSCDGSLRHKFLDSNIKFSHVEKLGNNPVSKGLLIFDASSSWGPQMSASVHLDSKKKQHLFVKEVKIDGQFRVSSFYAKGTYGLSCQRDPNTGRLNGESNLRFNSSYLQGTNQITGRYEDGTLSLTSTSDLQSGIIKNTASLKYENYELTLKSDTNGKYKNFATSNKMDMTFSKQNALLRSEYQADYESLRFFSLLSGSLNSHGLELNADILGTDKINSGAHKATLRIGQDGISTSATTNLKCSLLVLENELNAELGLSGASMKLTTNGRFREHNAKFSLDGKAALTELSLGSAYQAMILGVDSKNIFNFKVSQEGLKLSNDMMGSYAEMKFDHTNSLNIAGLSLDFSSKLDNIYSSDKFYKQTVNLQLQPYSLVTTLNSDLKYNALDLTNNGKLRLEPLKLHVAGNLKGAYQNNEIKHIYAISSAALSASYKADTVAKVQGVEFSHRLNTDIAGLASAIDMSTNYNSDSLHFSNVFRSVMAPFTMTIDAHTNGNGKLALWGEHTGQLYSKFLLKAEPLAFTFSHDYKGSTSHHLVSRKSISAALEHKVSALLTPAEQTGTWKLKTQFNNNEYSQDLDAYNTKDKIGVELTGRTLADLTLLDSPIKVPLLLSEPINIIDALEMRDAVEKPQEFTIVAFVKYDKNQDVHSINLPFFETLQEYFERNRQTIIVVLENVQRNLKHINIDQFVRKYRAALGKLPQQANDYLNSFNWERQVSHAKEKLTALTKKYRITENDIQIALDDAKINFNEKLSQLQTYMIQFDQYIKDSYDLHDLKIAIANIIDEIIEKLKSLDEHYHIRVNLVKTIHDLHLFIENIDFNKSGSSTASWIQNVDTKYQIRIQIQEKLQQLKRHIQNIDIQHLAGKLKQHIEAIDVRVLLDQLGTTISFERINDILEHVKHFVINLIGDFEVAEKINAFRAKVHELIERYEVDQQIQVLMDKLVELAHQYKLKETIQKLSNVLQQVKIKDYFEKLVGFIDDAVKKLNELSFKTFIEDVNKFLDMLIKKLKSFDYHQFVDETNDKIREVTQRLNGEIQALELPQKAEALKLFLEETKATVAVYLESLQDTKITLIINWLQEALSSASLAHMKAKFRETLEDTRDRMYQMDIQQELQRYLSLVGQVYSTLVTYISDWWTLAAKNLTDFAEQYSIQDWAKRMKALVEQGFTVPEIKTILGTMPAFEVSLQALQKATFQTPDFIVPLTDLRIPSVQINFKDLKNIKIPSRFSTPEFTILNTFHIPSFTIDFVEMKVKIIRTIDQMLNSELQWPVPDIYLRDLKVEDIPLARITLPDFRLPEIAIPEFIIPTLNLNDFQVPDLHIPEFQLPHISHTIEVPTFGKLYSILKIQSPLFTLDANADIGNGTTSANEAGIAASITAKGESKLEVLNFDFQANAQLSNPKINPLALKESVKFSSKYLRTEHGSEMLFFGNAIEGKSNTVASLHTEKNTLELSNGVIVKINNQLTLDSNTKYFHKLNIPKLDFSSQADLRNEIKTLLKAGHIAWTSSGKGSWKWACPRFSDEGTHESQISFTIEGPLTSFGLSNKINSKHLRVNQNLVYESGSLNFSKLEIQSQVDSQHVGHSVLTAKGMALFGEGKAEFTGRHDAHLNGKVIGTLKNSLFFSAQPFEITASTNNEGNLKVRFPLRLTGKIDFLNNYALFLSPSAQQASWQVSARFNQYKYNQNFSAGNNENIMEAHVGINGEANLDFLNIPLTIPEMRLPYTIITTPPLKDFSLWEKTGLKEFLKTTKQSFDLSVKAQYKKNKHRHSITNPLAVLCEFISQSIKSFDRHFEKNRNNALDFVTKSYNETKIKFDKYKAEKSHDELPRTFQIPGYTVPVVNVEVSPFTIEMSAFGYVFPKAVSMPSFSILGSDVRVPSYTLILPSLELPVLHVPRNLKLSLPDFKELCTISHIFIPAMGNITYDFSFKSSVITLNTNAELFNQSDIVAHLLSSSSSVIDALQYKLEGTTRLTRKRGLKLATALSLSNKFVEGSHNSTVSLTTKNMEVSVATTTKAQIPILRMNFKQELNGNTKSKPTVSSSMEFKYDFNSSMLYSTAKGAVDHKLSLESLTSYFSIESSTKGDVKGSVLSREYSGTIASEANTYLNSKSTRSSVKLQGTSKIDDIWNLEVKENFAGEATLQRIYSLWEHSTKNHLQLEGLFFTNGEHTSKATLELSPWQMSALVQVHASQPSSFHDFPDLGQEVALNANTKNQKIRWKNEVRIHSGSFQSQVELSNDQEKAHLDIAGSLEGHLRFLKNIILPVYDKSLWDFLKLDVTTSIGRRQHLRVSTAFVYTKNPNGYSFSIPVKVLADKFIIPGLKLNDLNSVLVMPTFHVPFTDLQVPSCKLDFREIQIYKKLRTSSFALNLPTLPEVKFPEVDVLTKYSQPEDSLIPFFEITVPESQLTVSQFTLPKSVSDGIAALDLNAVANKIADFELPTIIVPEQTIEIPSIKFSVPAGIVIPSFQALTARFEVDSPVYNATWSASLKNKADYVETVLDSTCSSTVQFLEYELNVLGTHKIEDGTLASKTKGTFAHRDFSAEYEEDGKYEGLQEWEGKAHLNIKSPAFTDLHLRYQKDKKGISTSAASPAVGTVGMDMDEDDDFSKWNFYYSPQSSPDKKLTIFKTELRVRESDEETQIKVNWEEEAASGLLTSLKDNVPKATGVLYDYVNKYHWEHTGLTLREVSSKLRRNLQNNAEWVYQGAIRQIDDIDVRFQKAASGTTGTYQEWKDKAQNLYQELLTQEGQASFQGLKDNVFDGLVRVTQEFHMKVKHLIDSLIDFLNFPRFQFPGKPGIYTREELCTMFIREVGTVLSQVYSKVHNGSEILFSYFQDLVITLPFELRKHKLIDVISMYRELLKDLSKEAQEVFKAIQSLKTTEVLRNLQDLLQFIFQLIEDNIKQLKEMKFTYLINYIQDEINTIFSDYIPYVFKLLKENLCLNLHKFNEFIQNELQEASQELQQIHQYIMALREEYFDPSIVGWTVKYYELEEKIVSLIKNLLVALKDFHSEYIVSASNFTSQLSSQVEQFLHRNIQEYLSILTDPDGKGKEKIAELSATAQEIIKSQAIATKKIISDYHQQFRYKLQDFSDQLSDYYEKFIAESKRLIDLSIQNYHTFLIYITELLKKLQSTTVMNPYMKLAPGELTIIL

Biological target: ENO1 (α-enolase) (human (rheumatoid arthritis patient)) (UniProt P06733)
Test: immunoblotting, confocal microscopy, BIACORE system and ELISA

- binding: binds
Substance: apolipoprotein B100 (apoB100) (from UniProt P04114 28-4563) (ligand)
